Results are given in words; binding and its absence hold for the method and conditions named. Binding seen in cells or lysates may run through a third protein. These calls come from enrichment with a bait or labelling near it, and not all partners need be listed.
Target: V5-APEX2-UBQLN2 (human (cDNA from UBQLN2-expressing HEK 293 cells)) (UniProt Q9UHD9)
Assay: proximity labelling; V5-APEX2-UBQLN2 transfected into UBQLN1, 2, 4 TKO HEK 293 cells; 500 uM biotin-phenol 1 h, 1 mM hydrogen peroxide 1 min; streptavidin pulldown of biotinylated proteins, TMT LC-MS3; enrichment counted against APEX2-UBQLN1 samples

The chains behind the UniProt entries cited, without tags or fusion partners.
UniProt Q9UHD9: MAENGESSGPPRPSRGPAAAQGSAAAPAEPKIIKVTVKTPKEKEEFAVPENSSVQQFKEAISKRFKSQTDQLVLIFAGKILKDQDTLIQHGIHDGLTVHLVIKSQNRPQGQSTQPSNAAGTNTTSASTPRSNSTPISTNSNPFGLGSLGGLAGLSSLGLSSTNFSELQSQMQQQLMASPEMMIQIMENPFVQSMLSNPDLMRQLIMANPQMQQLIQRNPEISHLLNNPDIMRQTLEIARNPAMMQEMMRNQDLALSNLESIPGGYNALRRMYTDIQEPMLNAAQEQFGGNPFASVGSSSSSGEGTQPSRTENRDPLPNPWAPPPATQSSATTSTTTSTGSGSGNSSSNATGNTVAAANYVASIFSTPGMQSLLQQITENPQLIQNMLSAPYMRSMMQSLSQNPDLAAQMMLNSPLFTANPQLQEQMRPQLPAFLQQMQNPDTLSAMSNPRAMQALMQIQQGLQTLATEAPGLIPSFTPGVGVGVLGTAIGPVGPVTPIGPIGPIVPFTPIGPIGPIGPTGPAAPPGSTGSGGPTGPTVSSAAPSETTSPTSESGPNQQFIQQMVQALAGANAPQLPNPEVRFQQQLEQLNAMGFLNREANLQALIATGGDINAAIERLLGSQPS
UniProt Q9Y6I3: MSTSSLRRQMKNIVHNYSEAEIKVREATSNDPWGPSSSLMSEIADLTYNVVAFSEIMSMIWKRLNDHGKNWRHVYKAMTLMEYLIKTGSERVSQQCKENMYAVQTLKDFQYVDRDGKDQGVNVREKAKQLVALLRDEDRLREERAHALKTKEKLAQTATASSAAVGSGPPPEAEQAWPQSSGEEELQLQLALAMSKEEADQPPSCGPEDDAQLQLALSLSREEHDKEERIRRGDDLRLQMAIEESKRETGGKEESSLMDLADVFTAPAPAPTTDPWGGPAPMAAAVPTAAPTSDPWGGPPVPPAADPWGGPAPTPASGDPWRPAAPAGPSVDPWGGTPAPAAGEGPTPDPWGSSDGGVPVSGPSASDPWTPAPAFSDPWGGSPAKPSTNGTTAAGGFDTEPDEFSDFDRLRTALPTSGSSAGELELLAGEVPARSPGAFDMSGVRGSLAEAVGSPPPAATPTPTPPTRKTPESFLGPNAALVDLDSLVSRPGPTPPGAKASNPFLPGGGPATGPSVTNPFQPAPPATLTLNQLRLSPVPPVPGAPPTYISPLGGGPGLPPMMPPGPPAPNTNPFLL

For epsin EPN1 (from UniProt Q9Y6I3 1-576), the binding was “binds”.

B1: epidermal growth factor receptor substrate 15 (EPS15) (protein, UniProt P42566 1-896)
chain: MAAAAQLSLTQLSSGNPVYEKYYRQVDTGNTGRVLASDAAAFLKKSGLPDLILGKIWDLADTDGKGILNKQEFFVALRLVACAQNGLEVSLSSLNLAVPPPRFHDTSSPLLISGTSAAELPWAVKPEDKAKYDAIFDSLSPVNGFLSGDKVKPVLLNSKLPVDILGRVWELSDIDHDGMLDRDEFAVAMFLVYCALEKEPVPMSLPPALVPPSKRKTWVVSPAEKAKYDEIFLKTDKDMDGFVSGLEVREIFLKTGLPSTLLAHIWSLCDTKDCGKLSKDQFALAFHLISQKLIKGIDPPHVLTPEMIPPSDRASLQKNIIGSSPVADFSAIKELDTLNNEIVDLQREKNNVEQDLKEKEDTIKQRTSEVQDLQDEVQRENTNLQKLQAQKQQVQELLDELDEQKAQLEEQLKEVRKKCAEEAQLISSLKAELTSQESQISTYEEELAKAREELSRLQQETAELEESVESGKAQLEPLQQHLQDSQQEISSMQMKLMEMKDLENHNSQLNWCSSPHSILVNGATDYCSLSTSSSETANLNEHVEGQSNLESEPIHQESPARSSPELLPSGVTDENEVTTAVTEKVCSELDNNRHSKEEDPFNVDSSSLTGPVADTNLDFFQSDPFVGSDPFKDDPFGKIDPFGGDPFKGSDPFASDCFFRQSTDPFATSSTDPFSAANNSSITSVETLKHNDPFAPGGTVVAASDSATDPFASVFGNESFGGGFADFSTLSKVNNEDPFRSATSSSVSNVVITKNVFEETSVKSEDEPPALPPKIGTPTRPCPLPPGKRSINKLDSPDPFKLNDPFQPFPGNDSPKEKDPEIFCDPFTSATTTTNKEADPSNFANFSAYPSEEDMIEWAKRESEREEEQRLARLNQQEQEDLELAIALSKSEISEA
B1 was tested, and the binding was “binds”.

B2: epsin EPN2 (protein, UniProt O95208 1-641)
chain: MTTSSIRRQMKNIVNNYSEAEIKVREATSNDPWGPSSSLMTEIADLTYNVVAFSEIMSMVWKRLNDHGKNWRHVYKALTLLDYLIKTGSERVAQQCRENIFAIQTLKDFQYIDRDGKDQGINVREKSKQLVALLKDEERLKAERAQALKTKERMAQVATGMGSNQITFGRGSSQPNLSTSHSEQEYGKAGGSPASYHGSPEASLCPQHRTGAPLGQSEELQPLSQRHPFLPHLGLASRPNGDWSQPCLTCDRAARATSPRVSSELEQARPQTSGEEELQLQLALAMSREVAEQEERLRRGDDLRLQMALEESRRDTVKIPKKKEHGSLPQQTTLLDLMDALPSSGPAAQKAEPWGPSASTNQTNPWGGPAAPASTSDPWPSFGTKPAASIDPWGVPTGATVQSVPKNSDPWAASQQPASSAGKRASDAWGAVSTTKPVSVSGSFELFSNLNGTIKDDFSEFDNLRTSKKTAESVTSLPSQNNGTTSPDPFESQPLTVASSKPSSARKTPESFLGPNAALVNLDSLVTRPAPPAQSLNPFLAPGAPATSAPVNPFQVNQPQPLTLNQLRGSPVLGTSTSFGPGPGVESMAVASMTSAAPQPALGATGSSLTPLGPAMMNMVGSVGIPPSAAQATGTTNPFLL
For B2, the binding was “binds”.

— article PMC7873701
